The supplement of paper PMC12350171
Structures can show the parent of a compound that is named as a salt. Most of the hits are listed elsewhere, so they are rarer here than in the full data.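 How the source made its calls: active = AUC significantly below DMSO controls by Student t-fit with adjusted P under 0.01; inactive = not significantly reduced.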

Test system: Haemophilus parainfluenzae
Assay: growth AUC normalised to DMSO control (fraction of control); higher = less growth inhibition, active = hit call of the paper
Conditions: 20 µM
Procedure, shortened: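 After two anaerobic passages, pathogens were added at a starting OD578 of 0.01 to pre-reduced mGAM plates holding compound at 20 μM with 1% DMSO; hemin and NAD were supplemented for Haemophilus parainfluenzae. Sealed with breathable membranes, plates were read at OD578 hourly for 24 h, in three biological replicates. The trapezoidal rule, applied up to the exponential-to-stationary transition, gave the growth-curve AUC, which was normalised to DMSO controls on the same plate.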

Question: With `CN1[C@@H]2CC[C@H]1CC(OC(=O)C(O)c1ccccc1)C2` (mixture of isomers) [(R,S) Homatropine hydrobromide] as the compound, how does the “growth AUC normalised to DMSO control” value read?
Answer: Its value is inactive: 1.01.
